Publication PMC9458065, “Discovery of Quinacrine as a Potent Topo II and Hsp90 Dual-Target Inhibitor, Repurposing for Cancer Therapy” (Molecules, 2022)

Test system: HL60 (HL−60 human leukemia cell)
Experiment: cells
Design: MTT cell proliferation assay, OD 570 nm, IC50 from triplicate dose-response
Conditions: MTT, 48 h
Method: The cell proliferation assay was evaluated using the MTT assay as described by Mosmann, with modifications. Cells were seeded into 96−well plates (5 × 10^3 cells/well) and exposed to various concentrations of compounds. After 48 h of treatment, 20 μL of 2.5 mg/mL MTT reagent was added to each well, and the cells were further incubated for 4 h at 37 ℃. The cells in each well were then treated with 100 μL of dimethyl sulfoxide (DMSO), and the optical density (OD) was recorded at 570 nm using a microplate reader (Bio−Tek). All experiments were performed in parallel three times, and the IC50 values were derived from the mean OD values of triplicate tests versus the drug concentration curves. […] HL−60 human leukemia cell is sensitive to Topo II inhibitors, which are commonly used to evaluate the inhibitory effect of Topo II inhibitors on proliferation.

CN[C@@H]1C[C@H]2O[C@@](C)([C@@H]1OC)n1c3ccccc3c3c4c(c5c6ccccc6n2c5c31)C(=O)NC4 [K−B6, Staurosporine]
IC50: < 0.01 µM
